Paper doi:10.1101/2023.07.28.550924 (bioRxiv, 2023)
No constants are given. Whether binding was seen depends on the method and setting. Binding calls can cover weak binding; strength is not graded here.

Target: StYeeD(L45A), His-tagged (Spirochaeta thermophila) (UniProt G0GAP7)
Test: BLI

binding: binds
B1: Spirochaeta thermophila YeeE (protein, UniProt G0GAP6 1-328)
chain: MIWTGLLVGFLFGIVLQRGRICFNSAFRDVLLFKDNYLFKLAVFTLALEMILFVLLSQVGLMQMNPKPLNLVGNIIGGFVFGLGMVLAGGCASGVTYRVGEGLTTAWFAALFYGLGAYATKSGAFSWWLSWVGQFKSPLSVEESAYYVKGAGPTISSVLGLNPWIPALVIAALFILWAFGTKTTSRETKFNWKIASVCLALVAGLGFITSTLSGRKYGLGITGGWINLFQGFLTNSPLNWEGLEIVGIILGAGVAAAVAGEFKLRMPKNPVTYLQVGIGGLLMGIGAVTAGGCNIGHFLTGVPQLALSSWLASIFFILGNWTMAWILF
